The record followed here is publication PMC5399177.

Protein sequences, listed by entry. Tags and fused reporters are not part of them.
UniProt P40763: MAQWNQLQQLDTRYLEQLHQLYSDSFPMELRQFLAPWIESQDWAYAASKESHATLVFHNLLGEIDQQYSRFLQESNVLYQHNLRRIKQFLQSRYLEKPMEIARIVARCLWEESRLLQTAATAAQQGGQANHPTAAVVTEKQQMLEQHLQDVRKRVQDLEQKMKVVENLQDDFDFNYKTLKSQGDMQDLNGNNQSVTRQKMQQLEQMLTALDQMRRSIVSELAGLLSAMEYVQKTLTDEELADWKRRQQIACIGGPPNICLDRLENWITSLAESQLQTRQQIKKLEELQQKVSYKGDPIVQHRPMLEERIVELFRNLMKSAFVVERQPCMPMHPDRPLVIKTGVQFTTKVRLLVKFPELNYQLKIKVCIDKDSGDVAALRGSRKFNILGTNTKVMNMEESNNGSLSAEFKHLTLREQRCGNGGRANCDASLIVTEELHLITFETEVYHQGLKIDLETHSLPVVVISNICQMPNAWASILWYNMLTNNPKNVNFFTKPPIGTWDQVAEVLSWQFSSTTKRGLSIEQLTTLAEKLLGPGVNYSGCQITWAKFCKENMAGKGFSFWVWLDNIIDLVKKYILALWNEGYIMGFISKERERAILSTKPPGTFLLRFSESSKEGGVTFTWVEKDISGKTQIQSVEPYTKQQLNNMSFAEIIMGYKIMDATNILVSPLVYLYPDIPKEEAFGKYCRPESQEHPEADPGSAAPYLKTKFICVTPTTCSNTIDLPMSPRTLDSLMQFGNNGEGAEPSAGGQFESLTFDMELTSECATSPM

The target in the assay is T1, Flag-DAB2IP (UniProt Q5VWQ8).
T1 sequence: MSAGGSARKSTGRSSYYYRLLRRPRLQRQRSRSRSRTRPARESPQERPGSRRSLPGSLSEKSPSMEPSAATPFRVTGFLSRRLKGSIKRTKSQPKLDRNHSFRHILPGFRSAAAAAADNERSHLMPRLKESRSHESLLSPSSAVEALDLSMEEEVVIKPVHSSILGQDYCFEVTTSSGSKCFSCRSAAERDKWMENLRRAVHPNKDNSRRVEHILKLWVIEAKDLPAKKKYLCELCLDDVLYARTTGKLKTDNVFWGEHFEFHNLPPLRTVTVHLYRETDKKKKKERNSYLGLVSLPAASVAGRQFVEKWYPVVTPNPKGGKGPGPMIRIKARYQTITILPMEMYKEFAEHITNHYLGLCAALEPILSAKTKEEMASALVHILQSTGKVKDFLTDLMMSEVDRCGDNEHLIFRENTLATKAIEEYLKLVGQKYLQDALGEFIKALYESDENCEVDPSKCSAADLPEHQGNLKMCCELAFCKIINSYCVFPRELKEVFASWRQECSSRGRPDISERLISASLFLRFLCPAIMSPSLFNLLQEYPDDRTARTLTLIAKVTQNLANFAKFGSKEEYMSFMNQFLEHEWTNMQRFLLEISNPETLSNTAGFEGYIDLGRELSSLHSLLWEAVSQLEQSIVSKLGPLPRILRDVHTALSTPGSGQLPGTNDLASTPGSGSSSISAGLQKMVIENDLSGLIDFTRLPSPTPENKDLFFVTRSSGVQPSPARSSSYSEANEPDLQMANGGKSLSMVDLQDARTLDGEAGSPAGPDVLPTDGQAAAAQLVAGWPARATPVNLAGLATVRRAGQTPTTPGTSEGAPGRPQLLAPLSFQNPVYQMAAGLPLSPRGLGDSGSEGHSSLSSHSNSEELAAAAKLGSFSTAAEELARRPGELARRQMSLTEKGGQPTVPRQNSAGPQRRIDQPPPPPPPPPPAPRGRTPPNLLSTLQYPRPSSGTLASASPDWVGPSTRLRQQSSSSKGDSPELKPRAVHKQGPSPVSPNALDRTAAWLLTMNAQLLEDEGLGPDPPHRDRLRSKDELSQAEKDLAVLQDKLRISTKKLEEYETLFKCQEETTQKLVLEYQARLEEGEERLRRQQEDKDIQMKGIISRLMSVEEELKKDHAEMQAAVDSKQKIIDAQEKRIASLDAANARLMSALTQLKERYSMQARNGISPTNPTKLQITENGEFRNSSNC
Put plainly: affinity purification with mass spectrometry; HEK 293 cells transfected with flag-tagged DAB2IP, lysed, immunoprecipitated with anti-flag antibody; bands cut from Coomassie-stained SDS-PAGE gel, Orbitrap Elite LC-MS/MS.

No constants are given. Whether binding was seen depends on the method and setting. Binding seen in cells or lysates may run through a third protein. A yes stands for co-enrichment or nearness to the bait. Other partners may have been found. Where a sequence is shown, tags or fusion partners need not be part of it.

As to “signal transducer and activator of transcription 3 (from UniProt P40763 1-770)”, the binding entry is “binds”.
